For assay [1], the target named is IFT20-BirA*-Myc (mouse) (UniProt Q61025). As to the kind of experiment: proximity labelling; BioID: 4T1 cells expressing IFT20-BirA*-Myc, 50 uM biotin for 36 h; RIPA lysis, streptavidin Dynabeads, mass spectrometry; controls parental 4T1 cells and IFT20-BirA*-Myc with DMSO.
For assay [2] the target is unchanged. Described as above. The source holds these as a separate data set.

Protein sequences, listed by entry. Tags and fused reporters are not part of them.
UniProt Q61025: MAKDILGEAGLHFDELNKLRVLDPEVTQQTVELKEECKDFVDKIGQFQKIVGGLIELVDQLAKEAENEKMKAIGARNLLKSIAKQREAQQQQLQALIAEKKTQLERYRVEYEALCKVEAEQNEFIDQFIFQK
UniProt Q9WVA4: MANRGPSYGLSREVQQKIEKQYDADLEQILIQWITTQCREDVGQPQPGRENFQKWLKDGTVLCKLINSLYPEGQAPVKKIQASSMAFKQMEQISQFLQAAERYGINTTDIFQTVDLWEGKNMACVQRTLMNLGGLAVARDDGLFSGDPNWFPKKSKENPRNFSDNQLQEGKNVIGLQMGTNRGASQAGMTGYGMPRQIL

Read-outs that look alike come from different tables or passages of the source. Results are given in words; binding and its absence hold for the method and conditions named. Binding seen in cells or lysates may run through a third protein. A yes stands for co-enrichment or nearness to the bait. Other partners may have been found.

Take Tagln2 (from UniProt Q9WVA4 1-199): the binding result in assay [1] is given as “binds”.

B1: Ctnnal1 (protein, UniProt O88327 1-731)
chain: MAASPVPGGGGAGAVHSSNAAGFTFDSGLEIRTRSVEQTLLPLVSQITTLINHKDNTKKSDKTLQAIQRVGQAVNLAVGRFVKVGEAIANENWDLKEEINIACIEAKQAGETIASLTDVTKRSHLESDGQVTILTDKTGVVQAARLLLSSVTKVLLLADRVVIKQIVTSRNKILATMERLEKVNSFQEFVQIFSQFGNEMVEFAHLTGDRQNDLKDEKKKARMAVARAVLEKGTMMLLTASKTCLRHPSCESAHTNKEGVFDRMRVALEKVTEIVTDCRLSGETDSSSVSIFTGIKELKVNIEALRENVCFESKENLSAALEAVLEHVEDFTDSAYTSHEHRERILELSSQARTELQQLLSVWMQTQSRKTKSAAEELELTVLKISHSLDELRRELHCTAMQLAADLLKFHADHVVLKALKVTGVEGNLEALAEYACKLSEQKEQLVETCRLLRHISGTEPLEITCIHAEETFQVTGQQIISAAETLTLHPSSKIAKENLDVFCEAWESQMSDMATLLREISDVFEGRRGERCDHLSLPKPTKNSANLKSLKPDKPDSEEQAKIAKLGLKLGLLSSDADCEIEKWEDEENEIVRHGRNMSRMAYSLYLFTRGEGPLKTSQDLIHFLEVFAAEGLKLTSSVQSFSKQLKDDDKLMLLLEINKLIPLCHQLQTITKTSLQSKVFLKVDKCITKIRSMMTLVVQLLSLCYKLLKKMENNRWGSATNKDTMDGQN
With B1, the binding result in assay [2] is recorded as “binds”.

The values above are taken from PMC7968458.
